The values are deposited in ChEMBL (CHEMBL3988442, “University of Dundee, Small-Polar-MMV Screening Library” (2021)).

Sequences of proteins named here, by UniProt entry; tags and fusion partners are left off. Residues count along the entry.
UniProt P9WPC5, whole entry: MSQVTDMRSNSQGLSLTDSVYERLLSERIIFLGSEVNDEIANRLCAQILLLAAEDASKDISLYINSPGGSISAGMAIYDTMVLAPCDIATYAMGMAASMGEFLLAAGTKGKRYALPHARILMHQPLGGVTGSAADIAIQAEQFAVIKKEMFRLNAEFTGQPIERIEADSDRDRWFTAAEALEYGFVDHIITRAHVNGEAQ
UniProt P9WPC3, whole entry partner: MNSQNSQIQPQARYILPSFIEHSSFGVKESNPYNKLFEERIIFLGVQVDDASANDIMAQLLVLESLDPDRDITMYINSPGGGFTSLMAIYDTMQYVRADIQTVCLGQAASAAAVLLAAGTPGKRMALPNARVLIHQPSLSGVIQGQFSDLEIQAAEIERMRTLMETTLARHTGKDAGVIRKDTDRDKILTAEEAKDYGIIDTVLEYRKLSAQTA
UniProt P9WFT3, whole entry: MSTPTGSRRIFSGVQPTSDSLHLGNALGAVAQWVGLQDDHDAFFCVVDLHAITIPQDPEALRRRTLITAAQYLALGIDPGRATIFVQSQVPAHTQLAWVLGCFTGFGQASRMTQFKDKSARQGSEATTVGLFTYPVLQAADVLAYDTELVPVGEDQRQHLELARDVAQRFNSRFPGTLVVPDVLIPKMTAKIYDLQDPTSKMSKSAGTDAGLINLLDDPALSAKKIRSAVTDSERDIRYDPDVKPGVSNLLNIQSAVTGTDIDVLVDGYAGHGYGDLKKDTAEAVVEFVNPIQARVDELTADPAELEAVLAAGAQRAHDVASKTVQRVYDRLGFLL
UniProt Q8IDJ8, 1-583: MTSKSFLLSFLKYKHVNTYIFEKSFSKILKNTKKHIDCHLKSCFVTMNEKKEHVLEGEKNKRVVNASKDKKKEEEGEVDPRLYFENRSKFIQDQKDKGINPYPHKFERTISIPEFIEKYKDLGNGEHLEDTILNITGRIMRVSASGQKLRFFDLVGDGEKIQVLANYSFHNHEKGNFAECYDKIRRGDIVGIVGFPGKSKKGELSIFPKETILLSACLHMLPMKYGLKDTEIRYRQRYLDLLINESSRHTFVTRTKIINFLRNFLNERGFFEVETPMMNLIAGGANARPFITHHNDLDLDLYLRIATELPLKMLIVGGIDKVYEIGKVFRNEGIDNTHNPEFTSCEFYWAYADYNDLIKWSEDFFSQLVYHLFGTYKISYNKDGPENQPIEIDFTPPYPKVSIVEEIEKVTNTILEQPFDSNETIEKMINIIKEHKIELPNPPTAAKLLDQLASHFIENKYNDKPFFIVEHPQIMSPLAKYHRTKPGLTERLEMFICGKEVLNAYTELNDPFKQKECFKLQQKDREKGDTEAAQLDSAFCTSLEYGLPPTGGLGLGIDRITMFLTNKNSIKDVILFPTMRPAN

ClpP1P2: 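Protease assay of ClpP1P2, read by the AMC dye that it sets free. Target: ClpP1P2, Mycobacterium tuberculosis (UniProt P9WPC5 and UniProt P9WPC3). Concentration: 50 µM. Direction is inferred from only a few compounds that gave an IC50; most scored high, so higher reads as stronger inhibition. Most other retested compounds had strongly negative values. Size under these conditions: about 69,000 compounds, about 10 of them at 50% or above in at least one test.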
MtTrpRS: 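Enzyme assay of tryptophanyl-tRNA synthetase; the read-out is not stated. Target: Tryptophan-tRNA ligase, Mycobacterium tuberculosis (UniProt P9WFT3). Concentration: 10 µM. Direction is not recorded; retested compounds ran higher, which suggests that high means inhibition. Of about 65,000 compounds tested this way, about 64 (0.098%) reached 50% or more in at least one test.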
PfKRS1: 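Enzyme assay of the cytosolic lysyl-tRNA synthetase in 384-well plates, read by luminescence. Target: Lysine-tRNA ligase, Plasmodium falciparum 3D7 (UniProt Q8IDJ8). Compounds at 30 µM. Higher reads as stronger inhibition, judged from the few compounds that gave an IC50. Size under these conditions: about 69,000 compounds, about 49 of them at 50% or above in at least one test.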

Values are the deposited “Percent Effect”, in %.
The record does not define 0% and 100%; most values in the screen are far below 50% and negative numbers occur (in some assays of this library far below -100).
The compounds are a random part of those screened.
A dash means the value is not listed here; it may have been measured.

SMILES,ClpP1P2,MtTrpRS,PfKRS1
COc1ccccc1C(C)CC(=O)N1CC[C@H](O)C1 (stereo partly drawn),-5.134%,0.2683%,-2.389%
C=C(C)CN(CC)C(=O)c1cc(F)ccc1NS(C)(=O)=O,-11.96%,2.559%,4.37%
Cn1cnc(S(=O)(=O)NCC(O)c2ccc3c(c2)CCO3)c1 (stereo not drawn),-5.168%,-1.854%,3.906%
CN(C)S(=O)(=O)N1CCC(OCCCc2ccccc2)C1 (stereo not drawn),-4.949%,-2.933%,2.324%
CCNC(=O)c1ncn2c1CN(C)S(=O)(=O)c1ccccc1-2,-8.028%,-0.4112%,2.23%
Clc1cc(CN2CCCN3CCCC3C2)c2ncccc2c1 (stereo not drawn),-9.041%,2.687%,1.299%
O=C(O)c1nnn(Cc2cccc(C(F)(F)F)c2)c1-c1ccccn1,2.27%,1.273%,4.528%
CC(C)CN(CC(O)c1ccccc1)C(=O)Nc1nccs1 (stereo not drawn),-0.08126%,-2.203%,3.285%
CCc1nnc2n1CCN(C(=O)Cc1csc(-c3ccco3)n1)C2,-5.692%,0.3934%,7.715%
COC(CNC(=O)C1CC1)c1ccc(C)s1 (stereo not drawn),-3.786%,-0.2472%,-1.61%
Cc1n[nH]c(CN2CCN(C(=O)C3CCC3)[C@@H]3CS(=O)(=O)C[C@@H]32)n1,-15.25%,-2.697%,7.926%
Cc1ccsc1C(=O)N1CC2CC1(C(=O)NCc1ccco1)C2,10.59%,-0.4042%,-2.983%
CCc1[nH]n(C)c(=N)c1-c1ccc2c(c1)OCO2,-5.222%,4.886%,2.308%
OCCN1CCN(Cc2cc(Cl)cc3cccnc23)CC1,-4.927%,0.8396%,6.66%
Cc1c(CN2CCc3[nH]cnc3C2C2CC2)[nH]c2ccc(F)cc12 (stereo not drawn),-9.683%,-1.38%,1.293%
O=C(O)[C@@H]1CCN(C(=O)c2ccccn2)[C@@H]1c1ccc(F)cc1,7.654%,-5.095%,6.625%
Cn1c(SCC(N)=O)nnc1-c1csc2c1CCCC2,5.47%,0.3236%,-0.5949%
CN(C)CCCNC(=O)c1ccnc(OCc2ccccc2)c1,-8.399%,-14.92%,2.68%
Cc1cc2ncn(C(=O)N3CCCCC3)c2cc1C,-12.84%,-5.644%,0.1001%
CC(C)C(=O)N1CCCC1C(=O)Nc1ccc(F)c(F)c1 (stereo not drawn),-11.66%,-1.426%,3.803%
Cc1cc(C)n(C2CCCN(C(=O)CN(C)C3CC3)C2)n1 (stereo not drawn),-1.844%,-1.212%,4.203%
Cc1ccoc1C(=O)N1CCO[C@H]2[C@H](OCc3ccncc3)CC[C@@H]21,-14.98%,-7.532%,2.315%
CC1(C)CN(Cc2c[nH]c(CC3CCCC3)n2)CC[C@]1(C)O,-5.496%,2.374%,-0.5423%
CN(CCc1ccccn1)C(=O)C(c1cccnc1)N1CCOCC1 (stereo not drawn),1.565%,5.317%,6.843%
CC(C)(C)n1cc(C(=O)N2CCN(Cc3ccncc3)CC2)cn1,-19.01%,-5.712%,0.9474%
CC(C)(C)c1ncc(C(=O)NCc2ccccc2CN2CCCC2)s1,-8.764%,-2.667%,5.694%
CCN(CCCNC(=O)c1cc2cccc(F)c2o1)S(C)(=O)=O,-11.15%,-7.243%,2.671%
CCN1CCN(C(=O)c2cc(-c3ccc(C)o3)n[nH]2)[C@H]2CS(=O)(=O)C[C@H]21,2.261%,2.311%,2.506%
CN(C)CCO[C@H]1CN(Cc2ccco2)[C@@H]2COC[C@H]12,-6.467%,-,2.747%
CC(C)C1CN(C(=O)c2ccsc2)CCS1 (stereo not drawn),-12.68%,3.006%,-0.865%
Cc1cc(C)c(C(=O)N2CCc3c(ncn3CCc3ccccc3)C2)[nH]1,3.756%,-5.217%,8.273%
CC(C(=O)Nc1ccc(N2CCCC2)nc1)n1ccnc1 (stereo not drawn),6.5%,-5.556%,7.176%
COCCCNS(=O)(=O)c1cc(C)sc1C,11.06%,-0.1652%,2.999%
CCCc1cc(N2CCCC2Cn2cc(C)cn2)n2ncnc2n1 (stereo not drawn),-1.257%,-1.858%,4.522%
CN(c1ccncn1)C1CC2(CCN(C(=O)c3cccn3C)C2)C1 (stereo not drawn),-8.758%,-,1.328%
c1cnc(N2CCC3(CCN(CC4CC4)CC3)CC2)nc1,11.9%,-0.6711%,6.744%
COc1ccccc1C(=O)N1C[C@@H]2CCCCN(CC(N)=O)[C@@H]2C1,-5.715%,-5.21%,1.774%
CN(Cc1cccnc1)C1CC2(CCN(Cc3ccccn3)CC2)C1,-5.076%,-0.7819%,2.799%
COCCC1CCN(CC(C)n2cnc3ccccc32)CC1 (stereo not drawn),-4.087%,1.232%,-0.02418%
CCCn1cnc2c1CN(S(=O)(=O)c1ccc(F)cc1)[C@H](C(=O)OC)C2,5.037%,5.111%,-5.92%
CC(C)Oc1ncc(C(=O)N2CCC(N(C)C)CC2)cc1Cl,-21.7%,2.408%,-1.136%
CC(C)CN1C[C@@H]2OCC(=O)N(Cc3nccn3C)[C@@H]2C1,0.757%,14.34%,-2.951%
O=C(c1cccc2c1OCCO2)N1CCCCC1Cn1cccn1 (stereo not drawn),-18.37%,-0.4068%,6.743%
Cc1cnn(CCNCc2cc(C)no2)c1,5.315%,-2.147%,1.473%
O=C(Cc1cccs1)Nc1cnn(C2CCOC2)c1 (stereo not drawn),-19.51%,6.236%,-3.823%
COc1cc(OC)cc(C2NC(=O)CN2Cc2ccc(Br)cc2)c1 (stereo not drawn),7.914%,0.432%,0.3138%
CCN1CCOC(CNCc2c(Cl)nc3ccccn23)C1 (stereo not drawn),-0.2946%,1.485%,2.342%
CCN1CC(O)CN(C(=O)c2cccc(C(F)(F)F)c2)CC1=O (stereo not drawn),-0.3303%,-,6.737%
O=C(Cc1ccccc1)N1C[C@@H]2OCCN(CC3CCCO3)[C@@H]2C1 (stereo partly drawn),-8.294%,-3.003%,0.1535%
CN1CC(c2n[nH]c(=O)n2-c2cccc(Cl)c2)CC1=O (stereo not drawn),1.194%,-0.4112%,6.998%
CCc1noc(C2CCCCN2C(=O)c2ccc3c(c2)OCO3)n1 (stereo not drawn),-3.732%,0.3886%,6.755%
CC(=O)N(C)c1nc(CN2CCN(Cc3nccn3C)CC2)cs1,12.41%,-0.4515%,-0.6059%
Cc1nc(CN2C(=O)COC3(CCN(C(N)=O)CC3)C2C)cs1 (stereo not drawn),5.524%,4.064%,4.073%
CC(=O)N1CCCC(c2nccnc2Nc2nc(C)cc(C)n2)C1 (stereo not drawn),-19.33%,12.32%,-2.02%
COCC(NC(=O)c1cc(NC(C)=O)ccc1Cl)c1ccnn1C (stereo not drawn),4.8%,1.232%,3.751%

Some entries from above, unchanged:

| SMILES | ClpP1P2 | MtTrpRS | PfKRS1 |
|---|---|---|---|
| `CN(c1ccncn1)C1CC2(CCN(C(=O)c3cccn3C)C2)C1` (stereo not drawn) | -8.758% | - | 1.328% |
| `CCN1CCOC(CNCc2c(Cl)nc3ccccn23)C1` (stereo not drawn) | -0.2946% | 1.485% | 2.342% |
| `Cc1cc2ncn(C(=O)N3CCCCC3)c2cc1C` | -12.84% | -5.644% | 0.1001% |